Several values for one entry are separate records, joined by “and”; a condition that tells them apart may be missing. Equal entries are not always repeated. About 7,500 (2.1%) of roughly 360,000 compounds were called active. Inconclusive means that the source gave no clear call. Such entries were picked first, then a sample of the others. Calls come from the whole dose curve; as a rule, active = well fitted inhibition curve with a large enough effect; inconclusive = small, poorly fitted or top-dose-only effect, or effect the other way; inactive = flat fitted curve, though single readings scatter. Where the call is inconclusive, the potency comes from a doubtful curve fit.
Assay: Nrf2 qHTS screen for inhibitors; note: nearly all actives have a fitted effect of over 60% in size
Conditions: A549 ARE-Fluc reporter, luciferase luminescence, 18-24 h; series mostly up to 46 µM
Procedure, shortened: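 Nrf2 activity is the BugLite luminescence, read 15 min after reagent at room temperature, following CellTiter-Fluor cytotoxicity readout (30 min, 37C). Compound titrations were applied for 18-24 h to 5000 A549 ARE_Fluc cells/well in 5% FBS OPTI-MEM.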
Potency is the fitted concentration of half-maximal effect.

Compound | Potency
CCn1nnc2cc(C(=O)NCCc3ccccc3F)ccc21 | inconclusive: 13 µM [activator, partial curve]
CC(=O)N1CCc2cc(S(=O)(=O)NC(C(=O)Nc3ccc(C)cc3C)C(C)C)ccc21 (stereo unspecified) | inconclusive: 11.6 µM [falling, partial curve]
Cc1ccc2nc(SCc3nc4c(cnn4-c4ccccc4)c(=O)[nH]3)[nH]c2c1 | inconclusive: 23.1 µM [falling, single point]
Cc1nc2nc[nH]n2c(=O)c1NS(=O)(=O)c1ccc(F)cc1 | inconclusive: 4.11 µM [activator, full curve, poor fit]
Cc1cccc(CCNC(=O)c2cccc(N3CCCC3=O)c2)c1 | inconclusive: 3.66 µM [activator, partial curve]
COc1ccc(N2CCN(c3oc(COc4ccccc4Cl)nc3C#N)CC2)cc1 | inconclusive: 6.51 µM [falling, single point]
Oc1ccc(CNc2ccccc2F)c2cccnc12 | inconclusive: 20.6 µM [falling, partial curve]
CCOC(=O)N1CCC(NC(=O)c2ccc3c(c2)N(CC)CCS3)CC1 | inconclusive: 6.51 µM [falling, single point]
COc1ccc(-n2c(=S)[nH]c3cc(C(=O)Nc4ccc(C)c(F)c4)ccc3c2=O)c(OC)c1 | active: 23.1 µM
COC(=O)c1c(NC(=O)CCNCc2ccco2)sc2c1CCC2 | inconclusive: 5.8 µM [activator, full curve, poor fit]
CN(C)S(=O)(=O)c1cccc(NC(=O)c2ccc(N3CCCC3=O)cc2)c1 | inactive
COc1ccc(N2CCN(C(=O)c3ccc(NS(=O)(=O)c4cccs4)cc3)CC2)cc1 | inconclusive: 16.4 µM [falling, single point]
CCC(CC)C(=O)Nc1nnc(S(=O)(=O)Nc2ccc(OC)cc2)s1 | inconclusive: 9.2 µM [falling, single point]
COc1ccc(/C=C/C(=O)Nc2nc3n(n2)C(c2ccc(F)cc2)C=C(c2ccccc2)N3)cc1 (stereo unspecified) | inconclusive: 25.9 µM [falling, single point]
Clc1ccc(Cn2c(/C=C/c3ccco3)nc3ccccc32)cc1 | inactive
O=S(=O)(NCC1CN(S(=O)(=O)c2c(F)cccc2F)C1)c1ccc2c(c1)OCCO2 | active: 11.6 µM
Cc1ccccc1-c1nc(CS(=O)CC(=O)NC2CC2)c(C)o1 (stereo unspecified) | inconclusive: 25.9 µM [falling, single point]
O=C(COc1ccccc1[N+](=O)[O-])N(Cc1cccc(Br)c1)C1CCS(=O)(=O)C1 (stereo unspecified) | inconclusive: 6.51 µM [falling, partial curve, poor fit]
O=C(NCc1cccc(Cl)c1)c1ccc2nc(N3CCCCC3)sc2c1 | inconclusive: 4.11 µM [activator, partial curve, poor fit]
CC(C)(O)C1=NOC(c2ccccc2)C1 (stereo unspecified) | inconclusive: 32.6 µM [falling, partial curve, poor fit]
CCCC(=O)NC(c1ccccc1)c1c(O)ccc2ccccc12 (stereo unspecified) | inconclusive: 29.1 µM [falling, single point]

Compound | Potency
CC(C)c1ccc(C(C(C(=O)c2ccccc2)N2CCOCC2)N2CCOCC2)cc1 (stereo unspecified) | inconclusive: 18.4 µM [activator, single point]
c1ccc(CNc2nc(-c3cccs3)nc3ccccc23)cc1 | inconclusive: 23.1 µM [activator, single point] and inconclusive: 18.4 µM [activator, single point]
CCN(CC)C(=O)c1ccc(Nc2nnc(-c3ccc(C)c(S(=O)(=O)NC)c3)c3ccccc23)cc1 | inconclusive: 25.9 µM [falling, single point]
CCc1cccc(N2C(=O)CSC23C(=O)Nc2ccccc23)c1 (stereo unspecified) | inactive
O=C(Nc1ccc(C(F)(F)F)cc1)c1cc(-c2cccnc2)nc2ccc(Br)cc12 | inconclusive: 3.26 µM [falling, full curve, poor fit]
Nc1c(Br)cc(Br)c2cccnc12 | inactive
CC(/C=N/NC(=O)c1cccs1)=C\c1ccco1 | inconclusive: 10.3 µM [activator, partial curve]
Cc1c(-c2nc(-c3ccc(C(F)(F)F)cc3)no2)n(C)oc1=O | inconclusive: 1.46 µM [activator, full curve]
CCOC(=O)N1CCC(NS(=O)(=O)c2ccc3c(c2)CCN3C(C)=O)CC1 | inconclusive: 8.2 µM [falling, partial curve]
Cn1c(NCc2ccccc2)nc2c1c(=O)n(Cc1ccc(Br)cc1)c(=O)n2C | active: 14.6 µM
O=C(CC1SC(=Nc2ccc(OC(F)F)cc2)N(CCC2=CCCCC2)C1=O)Nc1ccccc1F (stereo unspecified) | active: 20.6 µM
CCCn1c(CN2CCN(c3cccc(Cl)c3)CC2)nc2c1c(=O)n(C)c(=O)n2C | active: 18.4 µM
Cc1ccc(NC(=O)/C=C/c2ccc3c(c2)OCO3)nc1 | inconclusive: 0.259 µM [activator, full curve, poor fit]
O=[N+]([O-])c1cc(S(=O)(=O)C(F)(F)F)ccc1N1CCN(c2ccccc2)CC1 | inconclusive: 6.51 µM [falling, partial curve, poor fit]
Cc1cccc(NC(=S)Nc2ccccn2)c1 | inconclusive: 7.31 µM [activator, partial curve]
COc1cc(NC(=O)C2CCCN(c3ncnc4c3nc3n4CCCCC3)C2)cc(OC)c1OC (stereo unspecified) | inconclusive: 0.164 µM [falling, partial curve, poor fit]
C(=N\Nc1ccc2ccccc2n1)/c1ccc2c(c1)OCO2 | inconclusive: 23.1 µM [activator, partial curve]
CCCCOc1ccccc1CC1C(=O)Nc2ccc(Br)cc21 (stereo unspecified) | inconclusive: 23.1 µM [falling, single point]
CC1CC=CC2C1C(=O)N(Cc1ccccc1)C2c1ccc(-c2ccoc2)cc1F (stereo unspecified) | inconclusive: 29.1 µM [falling, single point]
Nc1nc(-c2ccc3c(c2)OCCO3)cs1 | inconclusive: 4.11 µM [activator, full curve]

Quoted at random: 3 compounds from above.
Compound | Potency
CC(/C=N/NC(=O)c1cccs1)=C\c1ccco1 | inconclusive: 10.3 µM [activator, partial curve]
O=C(COc1ccccc1[N+](=O)[O-])N(Cc1cccc(Br)c1)C1CCS(=O)(=O)C1 (stereo unspecified) | inconclusive: 6.51 µM [falling, partial curve, poor fit]
COc1ccc(-n2c(=S)[nH]c3cc(C(=O)Nc4ccc(C)c(F)c4)ccc3c2=O)c(OC)c1 | active: 23.1 µM
